Laboratory results as given in PubChem BioAssay (NCATS).
Inconclusive means that the source gave no clear call. Such entries were picked first, then a sample of the others. A potency beside an inconclusive call is a rough fit, not a confirmed value. Activity calls are given as the source filed them. Calls follow the shape of the dose curve; as a rule, active = well fitted inhibition curve with a large enough effect; inconclusive = small, poorly fitted or top-dose-only effect; inactive = no such curve, though single readings can be large or run the other way.

By UniProt entry, the sequences of proteins in these tests, tags left out. Where a name states a change or a piece, a line headed by the entry shows the natural chain unless it says otherwise.
UniProt Q99816: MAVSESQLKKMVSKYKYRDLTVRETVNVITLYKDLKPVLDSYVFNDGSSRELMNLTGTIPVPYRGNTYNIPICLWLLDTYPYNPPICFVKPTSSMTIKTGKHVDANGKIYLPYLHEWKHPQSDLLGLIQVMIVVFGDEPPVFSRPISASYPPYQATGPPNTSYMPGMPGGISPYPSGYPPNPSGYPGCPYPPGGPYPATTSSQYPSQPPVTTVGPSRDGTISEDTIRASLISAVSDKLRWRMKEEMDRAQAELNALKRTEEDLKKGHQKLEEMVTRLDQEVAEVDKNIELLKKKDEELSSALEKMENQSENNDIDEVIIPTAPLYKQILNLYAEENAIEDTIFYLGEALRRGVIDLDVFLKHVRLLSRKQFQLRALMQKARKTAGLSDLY

target: Tumor susceptibility gene 101 protein (Homo sapiens) (UniProt Q99816); assay: qHTS Assay for Iinhibitors of HIV-1 Budding by Blocking the Interaction of PTAP/TSG101: Hit Validation (AID 651600); conditions: PTAP peptide/TSG101 UEV interaction, biochemical assay; series mostly up to 57.5 µM; activity change, negative = inhibition: at the top concentration; also: nearly all actives have a fitted effect of over 70% in size
In short: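 Fluorescence polarization binding assay: Tsg101 binding domain (10 uM final) pre-dispensed with compounds, then FITC-labeled PTAP-motif peptide (50 nM final) added; 20 min at r.t. in HEPES pH 7.5 buffer with NaCl, Tween 20, EDTA, TCEP.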
% is scaled to controls: 0 for no effect and ±100 for the full control effect; potency is read from the fitted curve at half-maximal effect.

Activity change, negative = inhibition, inactive:
O=C(CCN1C(=O)/C(=C/c2ccco2)SC1=S)Nc1ccc(O)cc1C(=O)O 6.88%
C=C1CCN(c2ccc(C(=O)O)cc2[N+](=O)[O-])CC1 2.72%
COc1ccc(-c2cc(C(=O)N3CC(C)CC(C)C3)c3ccccc3n2)cc1OC (stereo not drawn) 14.9%
CCCN1CCN(S(=O)(=O)c2cn(C)nc2C)CC1 -13.4%
Cn1cc(/C=C2\SC(=S)N(NC(=O)c3ccccc3)C2=O)c2ccccc21 11.4%
Cc1ccc(OC(=O)c2ccc3nc(C)sc3c2)cc1 9.69%
CCN1CCN(Cc2ccc(NC(=O)Nc3ccccc3OC)cc2)CC1 1.71%

An excerpt from above in order of heavy-atom count, high to low:
Activity change, negative = inhibition, inactive:
Cn1cc(/C=C2\SC(=S)N(NC(=O)c3ccccc3)C2=O)c2ccccc21 11.4%
Cc1ccc(OC(=O)c2ccc3nc(C)sc3c2)cc1 9.69%
CCCN1CCN(S(=O)(=O)c2cn(C)nc2C)CC1 -13.4%

Following part:

Potency, active:
CC(=O)n1c(C=Nc2ccc(Cl)cc2)c(O)c2ccccc21 16.3 µM

Potency, inconclusive:
O=C(O)C(=O)/C(=C\c1ccccc1)c1ccc2ccccc2n1 46.1 µM [inhibitor, single point]
C=CCn1c(=N)c(S(=O)(=O)c2ccc(C)c(C)c2)cc2c(=O)n3ccccc3nc21 20.6 µM [inhibitor, partial curve]
N#Cc1cccc(NC(=O)CSc2ccc3c4c(cccc24)C(=O)c2ccccc2-3)c1 10.3 µM [inhibitor, full curve, poor fit]
O=C(C1=NN(c2ccccc2)C2C(=O)N(c3ccccc3Cl)C(=O)C12)c1ccccc1 (stereo not drawn) 46.1 µM [inhibitor, single point]
O=c1[nH]c(-[n+]2ccccc2)c(/C=N/NC([S-])=Nc2ccccc2)s1 32.6 µM [inhibitor, single point]
